The full ranking holds about 1,700 compounds; the median of “T2 sensor activation Q score (MG/GFP ratio z-score vs DMSO controls)” is about 0.3, and the highest 2% start at about 1.9. The list shows a part of the results.
Tested on: ppGalNAc-T2 sensor
Assay: T2 sensor activation Q score (MG/GFP ratio z-score vs DMSO controls) (SD units); higher = more sensor activation (inhibition of ppGalNAc-T2 glycosylation)
Conditions: HEK293 sensor cells; 10 µM; 6 h
Procedure: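 Cells were treated with compound at 10 uM for 6 h, then MG/GFP ratio was read by flow cytometry (10,000 cells per well, duplicate wells). Q = (R - R_neg)/SD_neg relative to DMSO vehicle controls; the signal rises when the glycosyltransferase is inhibited.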

Row | SMILES | T2 sensor activation Q score
1 | CC(=O)Nc1ccc(OC(=O)Oc2ccc(NC(C)=O)cc2)cc1 | 1.2
2 | N=C1CCC(=N)c2c1c(O)c1ccccc1c2O | -1
3 | Cc1ccc(Nc2ccc(N)cc2S(=O)(=O)O)cc1 | -0.25
4 | COc1cc(C2NC(=O)C(C#N)=C(Nc3cccc(C)c3)S2)ccc1O (stereo not drawn) | 0.5
5 | CCOC(=O)Nc1ccc2nc(Sc3ccc(Cl)cc3)sc2c1 | 0.35
6 | COc1ccc2c3c1OC1CC(O)C=CC31CCN(C)C2 (stereo not drawn) | -0.15
7 | Cc1cc(NC(=O)NC(=O)c2ccccc2NC(=O)C(C)N)ccc1Oc1ncc(Br)cn1 (stereo not drawn) | 1.7
8 | CCCCn1cnc2c(=S)nc(N)[nH]c21 | 1
9 | O=c1[nH]cc(Cl)cc1Cl | 0.5
10 | O=C(Nc1cccc(-c2ccccc2)c1)N1CCN(C(=O)Nc2cccc(-c3ccccc3)c2)CC1 | -0.6
11 | CC(O)(c1ccccc1)C(c1ccccc1)C1CCCCN1 (stereo not drawn) | 1.5
12 | CC#CC#Cc1cccc(=O)o1 | -1.15
13 | C=C(C)CN1C(=O)C(C)S/C1=N/N=C1/SCC(=O)N1C (stereo not drawn) | -0.55
14 | CC1(C)N=C(N)NC(=NCCCOc2ccc([N+](=O)[O-])cc2)N1 | -0.3
15 | Clc1ccc(Oc2nc3c(Cl)cccc3s2)cc1Cl | 0.85
16 | CCc1ccc(CCN2C(=O)c3ccccc3C2=O)nc1 | 0.65
17 | COC(=O)Nc1csc2c1NC(=O)CCCC2 | 0
18 | Oc1ccc2ccccc2c1N=Nc1nccs1 | 0.9
19 | CCOC(=O)CSc1nc2nc(Cl)c(Cl)nc2[nH]1 | 0.95
20 | CC(=O)c1cc(O)c2ccccc2c1O | 1.7
21 | CC(C)C(=O)Nc1cccnc1 | -0.15
22 | CC(=O)Nc1ccc(S(=O)(=O)N=S(C)C)cc1 | 0.75
23 | NC(=O)c1nnsc1-c1ccc(-c2snnc2C(N)=O)cc1 | 1.7
24 | NS(=O)(=O)c1ccc(N=Nc2ccc(=O)[nH]c2O)cc1 | -1.25
25 | CC(=O)OCCN1c2ccccc2Sc2cnccc21 | -0.4
26 | COc1cccc(/C=C2\CCc3ccccc3C2=O)c1 | -2.35

Three entries from above, ordered by molar mass, smallest number first:
Row | SMILES | T2 sensor activation Q score
8 | CCCCn1cnc2c(=S)nc(N)[nH]c21 | 1
22 | CC(=O)Nc1ccc(S(=O)(=O)N=S(C)C)cc1 | 0.75
15 | Clc1ccc(Oc2nc3c(Cl)cccc3s2)cc1Cl | 0.85

The list continues.

Row | SMILES | T2 sensor activation Q score
27 | O=C(Nc1ccc(Br)c2ccccc12)c1ccc2ccccc2c1O | 1.2
28 | COc1cc(-c2ccc(NC(=O)NC3CC3)c(OC)c2)ccc1NC(=O)NC1CC1 | 0.3
29 | O=C1OCC/C1=C\OCCCO/C=C1\CCOC1=O | -0.4
30 | Cc1ccc(NC(=O)Nc2nc3ccccc3s2)cc1NC(=O)Nc1nc2ccccc2s1 | -1.2
31 | Cc1cc(C)n2c(C)nnc2c1 | 1.55
32 | Nc1n[nH]c(CO)n1 | 1.95
33 | CCOC(=O)/C(C#N)=C/c1c[nH]c2ccccc12 | 0.65
34 | Nc1ccc(C(=O)C(=O)c2ccc(N)cc2)cc1 | -1.05
35 | COc1c(/C=N/NC(N)=O)c(OC)c(OC)c2c1CCO2 | 1.7
36 | CC(=O)NC1=C/C(=C\[N+](=O)[O-])C=C1O | -0.65
37 | CC1=C(C(N)=O)S(=O)(=O)c2ccccc21 | 1.85
38 | CC(C)(C)n1nc(C2CC2)cc1NC(=O)Nc1ccccc1 | -0.05
39 | Nc1ccc(-c2nc3nc(N)nc(N)c3nc2-c2ccc(N)cc2)cc1 | 4.95
40 | CC(C)(NC(=O)c1cc(Cl)c2ccccc2c1O)C(=O)O | 1.25
41 | CC(C)C[C@H](NC(=O)[C@H](Cc1ccccc1)NC(=O)c1cnccn1)B(O)O | -1.25
42 | CC(=O)NS(=O)(=O)c1ccc2sc(C)nc2c1 | 1.4
43 | COc1ccc(N=Cc2c(O)ccc3c2oc2cc(Cl)c(O)c(Cl)c23)cc1 | 1.45
44 | CS(=O)(=O)c1ccc(C(=O)Nc2ccc(Cl)c(-c3ccccn3)c2)c(Cl)c1 | -0.45
45 | CC1(C)N=C(N)N=C(N)N1c1cccc(CN)c1 | -0.85
46 | O=C(O)c1cc2ccccc2cc1Nc1ccccc1 | 1.35
47 | CCCCCC(=O)N1CCCC1 | -1.2
48 | Brc1ccc(-c2csc(Nc3nc(-c4ccc(Br)cc4)cs3)n2)cc1 | 0.05
49 | N=c1ccn2c(n1)O[C@H]1[C@H](O)[C@@H](CO)O[C@H]12 | -0.8
50 | O=c1[nH]cc(F)c(=O)[nH]1 | -1.15
51 | Oc1ccccc1Nc1ccccn1 | -0.85
52 | C=CCNC(=S)Nc1c(N)n(C)c(=O)n(C)c1=O | -0.8

Row | SMILES | T2 sensor activation Q score
53 | O=C(Nc1ccc2ccccc2c1)c1cccc(F)c1 | 0.2
54 | C[C@H](CCC(=O)O)[C@H]1CC[C@@]2(C)[C@@H]3C(=O)C[C@H]4C(C)(C)[C@@H](O)CC[C@]4(C)[C@H]3C(=O)C[C@]12C | 0.05
55 | COc1cccc(-c2nnc(N)o2)c1 | -1.45
56 | O=C(Nc1ccc(O)c(C(=O)O)c1)Oc1ccccc1 | 1.45
57 | CCNC(=O)Oc1ccc[nH]c1=O | 0.7
58 | COc1ccc2c3c([nH]c2c1)[C@H]1C[C@H]2[C@H](C[C@@H](O)[C@H](OC)[C@H]2CO)CN1CC3 | 0.15
59 | CCCCC(=O)OCC(=O)[C@]1(O)Cc2c(O)c3c(c(O)c2[C@@H](O[C@H]2C[C@H](NC(=O)C(F)(F)F)[C@H](O)[C@H](C)O2)C1)C(=O)c1c(OC)cccc1C3=O | -5.6
60 | Cc1nc2ccccc2c(N)c1-c1cc(C)c2c(C)nc3ccccc3c2n1 | 1.55
61 | O=C1OC(Cc2ccccc2)C(c2ccccc2)C1=O (stereo not drawn) | 0.95
62 | OCc1ncccc1O | 1.6
63 | CCCOc1nc2c(c(=O)n(C)c(=O)n2C)n1C | 1.5
64 | [O-]/[N+](=C\c1ccccc1)CC1(O)CCCCC1 | -0.25
65 | CCOC(CNCc1cc(C)c2[nH]c3ccccc3c2c1C)OCC | -0.5
66 | O=S(=O)(c1ccc2c(c1)CCCN2)N1CCC[C@H]2CCCC[C@@H]21 | -1.9
67 | CCOC(=O)c1c(C)c(C(=O)OCC)n(C)c1C | 1.7
68 | Cc1ccc(C(N)=Nc2ccccc2)cc1 | 1.7
69 | C#CC1(O)CCC2C3CCC4=Cc5oncc5CC4(C)C3CCC21C (stereo not drawn) | 0.4
70 | Nc1nnc(-c2cccnc2)s1 | 0.6
71 | CC1(C)OC2C(CO)OC(n3cnc4c(=S)nc[nH]c43)C2O1 (stereo not drawn) | 0.4
72 | Cc1ccc(NC(=O)NNC(=O)CSC2CCc3ccccc32)c(C)c1 (stereo not drawn) | -1.2
73 | Cc1ccc(NC(=O)Nc2cccnc2)cc1NC(=O)Nc1cccnc1 | 1.05
74 | C[C@]12CC[C@H](O)CC1=CC[C@@H]1[C@@H]2CC[C@]2(C)c3[nH]ncc3C[C@@H]12 | 0.2
75 | O=C1c2ccccc2C(=O)c2c1cccc2-n1nnc2ccccc21 | 1
76 | O=C1c2ccccc2C(=O)C1c1ccccn1 | -0.05
77 | CC(=C/c1ccccc1)/C=C1/NC(=S)NC1=O | -0.2
78 | C#CCOCC1CN(c2ccccc2)C(=O)O1 (stereo not drawn) | 1.35

From the supplement of paper PMC5407854, “Inhibitor of ppGalNAc-T3-mediated O-glycosylation blocks cancer cell invasiveness and lowers FGF23 levels” (eLife, 2017)
